# Screening data, single-dose tests

A: 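Phenotypic screen: M. tuberculosis growth, glucose 7H9 medium, 3 days; the read-out is not stated. Tested at 500 µM. Direction is inferred from retests: higher values go with more growth inhibition. About 18,000 compounds were tested under these conditions; 7.9% (about 1,400) showed 50% or more at least once.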
B: 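Whole-cell growth test on Mycobacterium tuberculosis, read after 4 days in a medium based on cholesterol and the lipid DPPC; the read-out is not stated. Tested at 500 µM. Direction is inferred from retests: higher values go with more growth inhibition. Size under these conditions: about 18,000 compounds, about 900 of them at 50% or above in at least one test.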

The filed quantity is “Percent Effect” (%). The record does not define 0% and 100%; most values in the screen are far below 50% and negative numbers occur (in some assays of this library far below -100). The compounds are a random part of those screened.

structure | A | B
Cc1cc(N2CCC(N)CC2)nc(C)n1 | -2.363% | 1.249%
CC(C)Oc1c(Cl)cccc1NCC(=O)N(C)C | -22.18% | -4.633%
Cc1noc(CN2Cc3ccccc3CC2C(N)=O)n1 (stereo not drawn) | 11.91% | 7.065%
CCOc1cccc(CNS(C)(=O)=O)c1 | 47.87% | 37.95%
Cc1ccnc(N2CCNCC2)c1 | 22.67% | 33.61%
CCc1c(C(=O)N(C)C)cnn1-c1ccccc1 | 25.03% | 19.32%
CCN(CC)C(=O)Nc1c(C)nn(C)c1OC | 3.891% | -4.313%
COC(C)C(=O)NCCCN(C)C(C)C (stereo not drawn) | 5.358% | 6.334%
OC[C@@H]1CCCN1Cc1ccc(F)c2cccnc12 | 35.05% | 1.681%
CCC(C(=O)NCc1nnc(N)s1)n1cccn1 (stereo not drawn) | 3.052% | 9.078%
CCCc1nc(C)n[nH]1 | -7.676% | -10.41%
COC(=O)[C@@H]1C[C@@H](O)CN1Cc1ncc(C(C)(C)C)o1 | -13.03% | 72.93%
CCCC(=O)NC1CCCNC1 (stereo not drawn) | -0.226% | 2.926%
CC(Sc1nnc[nH]1)C(=O)Nc1ccc(F)cc1F (stereo not drawn) | -26.21% | -24.4%
CN(C)S(=O)(=O)N1CCCCC1CN (stereo not drawn) | 10.72% | 11.84%
CS(=O)(=O)c1ccc(CN)o1 | 1.198% | 0.5355%
O=C(NCCC(F)(F)F)NC1CCC2(CC1)OCCO2 | 17.31% | 10.92%
CC(CNC(=O)NC1CCCC1)N1CCOCC1 (stereo not drawn) | 11.9% | 14.22%
CCc1ccccc1NC(=O)CSCC(N)=O | 17.07% | 6.152%
O=C(NCc1nccs1)c1ccc(F)cc1F | 48.93% | 31.84%
O=S(=O)(CC1CCCC1)N1CCCC(CO)C1 (stereo not drawn) | 25.72% | 15.49%
CCNC(=O)C(C)NC(=O)CCc1ccsc1 (stereo not drawn) | 9.792% | 6.956%
N#Cc1cc(CN2CCCC3(C2)OCCO3)ccc1F | 2.191% | 1.471%
O=C(CCn1cccn1)N1CCN(c2nccs2)CC1 | 30.95% | 10.26%
CN[C@H](COC)C(N)=O | -0.7818% | -7.182%
COc1ccccc1-c1[nH][nH]c(=O)c1CCN | 41.84% | 18.42%
NC1CC(c2cc(NCCCn3ccnn3)ncn2)C1 (stereo not drawn) | 1.758% | 3.046%
CN(C)CCN(CCN(C)C)C(=O)NC1CC1 | 2.862% | 1.225%
Cc1cc(OCC(=O)NCc2ccccc2F)no1 | 65.06% | 50.7%
CCOCCOC1CNC1 | 6.7% | -6.469%
Cc1nc(CN2CCN(c3ncc(Br)cn3)CC2)n[nH]1 | -10.05% | -16.25%
O=C1CNC2(CCCCC2)C(=O)N1 | -9.924% | 0.6119%
CCOC(=O)c1ccccc1N1C(=O)C=CC1=O | 105.7% | 111.7%
c1cc(COC2CCNC2)ccn1 (stereo not drawn) | 5.038% | 7.658%
COc1ncccc1CN(C)S(=O)(=O)c1cccs1 | 48.34% | 51.08%
CCOc1cc(C(=O)NCc2ccc(C)n2C)ccn1 | 38.44% | 16.78%
NC(CC(=O)N1CCOCC1)c1ccccc1 (stereo not drawn) | -4.178% | -3.675%
NC(=O)COc1cccc(CN2CCCCC2CO)c1 (stereo not drawn) | -10.67% | 1.088%
Cc1noc(CN(C)CCC2CCOCC2)n1 | 2.036% | -1.913%
COC(=O)c1ccc(CCNC(=O)C2CCCO2)cc1 (stereo not drawn) | 64.63% | 60.93%
COc1cccc(CN2CCS(=O)(=O)CC2)c1OC | 2.243% | 4.555%
O=C(NCc1cccs1)c1cnccn1 | 71.56% | 51.97%
CC(C)C[C@H](N)CN1CCCC1 | -7.121% | -1.088%
N#CCC1(O)CN(Cc2ccc3c(c2)CCO3)C1 | 8.247% | 5.186%
Cn1cc(C(=O)NCCCN2CCOCC2)ccc1=O | 0.8018% | -3.671%
CCN(C)CCNC(=O)c1ccncc1I | 1.6% | 1.558%
CCCC(N)C(=O)Nc1cccc(N2CCCC2)c1 (stereo not drawn) | 1.213% | -6.307%
Cc1ccccc1CC(=O)N1CCNCC1 | 17.44% | -1.625%
CCNS(=O)(=O)c1ccc(CN)cc1 | -2.524% | -9.175%
Cc1cc(NC(=O)CNC(=O)c2ccccc2Br)no1 | -11.13% | -14.02%

The last 3 entries again:

For Cc1ccccc1CC(=O)N1CCNCC1 the result was A: 17.44%; B: -1.625%.
For CCNS(=O)(=O)c1ccc(CN)cc1 the result was A: -2.524%; B: -9.175%.
For Cc1cc(NC(=O)CNC(=O)c2ccccc2Br)no1 the result was A: -11.13%; B: -14.02%.

From ChEMBL document CHEMBL3988442, “University of Dundee, Small-Polar-MMV Screening Library” (2021).